Measurements published in patent US10501428B2, “Thymoquinone derivatives for treatment of cancer” (United Arab Emirates University, priority 2014, dated 2019).
Some compounds share one wording; it may come from a single statement.

Tested on: G-quadruplex DNA
Experiment: Fluorescence titration of TQs with G-quadruplex DNA (modified Scatchard)
Format: binding, human
Conditions: for number of binding sites N: modified Scatchard equation; for red shift in fluorescence titration: Tris-KCl buffer pH 7.4
Method: A 2 ml of the stock single stranded DNA; 5′-[…]-3′ (SEQ ID NO: 1) was gently heated up to 95° C., incubated for 10 minutes and then left to cool to room temperature. Resultant solution was kept in fridge at 4° C. overnight.
To 3 ml of 5×10^−5 M of each of compounds TQ1-8 in Tris-KCl-buffer, pH 7.4, successive portions of G-quadruplex DNA (1.44×10^−4 M) were added. After each addition, the TQ solution was stirred for 20 seconds, incubated for 3 min and its emission was scanned in the range 300-600 nm using excitation Amax of 280 nm and slit width of 10.00 nm. Titration stopped when no change in fluorescence intensity was observed.
Scatchard plots were used to determine the binding affinity of the thymoquinone derivative compounds to G-quadruplex based on fluorescence titration, keeping the compounds concentration constant and varying DNA amounts.
Dependant binding sites may have synergistic (the first bound ligand encourage the next binding one) or antagonistic (the first bound ligand suppress the next binding one) effects on each other, a phenomenon known as the neighbor exclusion effect. Non-linear regression based on a modified Scatchard equation gave the binding constants and number of binding sites shown in Table 3. Compound TQ8 has shown the highest binding constant (1.33×10^7 M^−1) and compound TQ5 has shown the lowest binding constant (7.76×10^4 M^−1)

[1] = titration with G-quadruplex DNA

SMILES	number of binding sites N	change in fluorescence intensity on titration [1]	red shift in fluorescence titration [1] [nm]	isosbestic point [1] [nm]	new peak appearing in fluorescence titration [1] [nm]
COc1ccc(CNC2=C(C)C(=O)C=C(C(C)C)C2=O)cc1OC [TQ7, 5-isopropyl-2-methyl-3-(3,4-dimethoxylbenzylamino)-1,4-benzoquinone]	2	decrease in fluorescence intensity	41		
CC1=C(NCc2ccc(C(F)(F)F)cc2)C(=O)C(C(C)C)=CC1=O [TQ2, 5-Isopropyl-2-methyl-3-(4-trifluoromethylbenzylamino)-1,4-benzoquinone]	1	decrease in fluorescence intensity	14		
CC1=C(NCc2cc(C(F)(F)F)cc(C(F)(F)F)c2)C(=O)C(C(C)C)=CC1=O [TQ5, 5-Isopropyl-2-methyl-3-(3,5-ditrifluoromethylbenzylamino)-1,4-benzoquinone]	1	decrease in fluorescence intensity	25		
CC1=C(NCCO)C(=O)C(C(C)C)=CC1=O [TQ6, 5-isopropyl-2-methyl-3-(2-hydroxyethylamino)-1,4-benzoquinone]	2	hypochromicity	4	315	350
CC1=C(NCCN2CCOCC2)C(=O)C(C(C)C)=CC1=O [TQ1, 5-Isopropyl-2-methyl-3-((2-morpholinoethyl)amino)-1,4-benzoquinone]	2	decrease in fluorescence intensity	24		
CC1=C(NCc2ccc(F)cc2)C(=O)C(C(C)C)=CC1=O [TQ3, 5-Isopropyl-2-methyl-3-(4-fluorobenzylamino)-1,4-benzoquinone]	3	hypochromicity	4		353.7
CC1=C(NCc2ccccc2)C(=O)C(C(C)C)=CC1=O [TQ4, 5-Isopropyl-2-methyl-3-(benzylamino)-1,4-benzoquinone]	3	decrease in fluorescence intensity	30		
